Measurements as given in the supplement of paper PMC4635364.
Structures can show the parent of a compound that is named as a salt. Some of the results follow. Single values are uncertain here, since repeats match poorly.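 Cells: ReNCell VM human fetal ventral-midbrain neural progenitors, differentiated mitogen-free. Blinded raters compared doublecortin-stained (early neurons) or tyrosine hydroxylase-stained (dopaminergic neurons) images with untreated wells, where 0 means no change. After repeats and both raters were averaged, compounds scoring 2 or above became hits for retesting.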

Legend:
[1] = test system: ReNCell VM; assay: neuronal differentiation score (DCX+ cell fraction vs untreated, manual image score) (score (-3 to 3)); higher = more neuronal differentiation; settings: 2 uM, 2 weeks
[2] = test system: ReNCell VM; assay: dopaminergic neuron differentiation score (TH+ cell fraction vs untreated, manual image score) (score (0 to 3)); higher = more TH+ dopaminergic neuron differentiation; settings: 2 uM, 4 weeks, BDNF 10 ng/ml + GDNF 10 ng/ml

NC(=O)CC[C@H](N)C(=O)O [L-Glutamine]
neuronal differentiation score ([1]; library: LOPAC): inactive: 0 | dopaminergic neuron differentiation score ([2]; library: LOPAC): inactive: 0

CN1CCC[C@@H]1Cc1c[nH]c2ccc(CCS(=O)(=O)c3ccccc3)cc12
neuronal differentiation score ([1]; library: Spectrum): inactive: 0 | dopaminergic neuron differentiation score ([2]; library: Spectrum): inactive: 0

N[C@H]1CONC1=O [(S)-(-)-Cycloserine]
neuronal differentiation score ([1]; library: Prestwick): inactive: 0 | dopaminergic neuron differentiation score ([2]; library: Prestwick): inactive: 1

CC(=O)OCC(=O)NCCCOc1cccc(CN2CCCCC2)c1 [Roxatidine Acetate HCl]
neuronal differentiation score ([1]; library: Prestwick): inactive: 0 | dopaminergic neuron differentiation score ([2]; library: Prestwick): inactive: 0

O=C(O)c1cc(=O)cc(C(=O)O)o1 [Chelidonic acid]
neuronal differentiation score ([1]; library: Phytochemical): inactive: 0 | dopaminergic neuron differentiation score ([2]; library: Phytochemical): inactive: 0

O=C(O)C(Oc1ccc2ccc(=O)oc2c1)c1ccccc1 (configuration not stated) [(2-oxo-2h-chromen-7-yloxy)-phenyl-acetic acid]
neuronal differentiation score ([1]; library: Natural): inactive: 0 | dopaminergic neuron differentiation score ([2]; library: Natural): inactive: 0

CCCCC[C@H](O)/C=C/[C@H]1[C@H](O)CC(=O)[C@@H]1C/C=C\CCCC(=O)O [Prostaglandin E2]
neuronal differentiation score ([1]; library: Tocriscreen): inactive: 0 | dopaminergic neuron differentiation score ([2]; library: Tocriscreen): inactive: 0

Clc1ccc(COC(Cn2ccnc2)c2ccc(Cl)cc2Cl)c(Cl)c1 (configuration not stated)
neuronal differentiation score ([1]; library: Spectrum): inactive: 0 | dopaminergic neuron differentiation score ([2]; library: Spectrum): inactive: 0

C[C@@]12C[C@@]3(O)O[C@@H](O1)[C@]1(COC(=O)c4ccccc4)[C@H]3C[C@@]12O[C@@H]1O[C@H](CO)[C@@H](O)[C@H](O)[C@H]1O
neuronal differentiation score ([1]; library: Spectrum): inactive: 0 | dopaminergic neuron differentiation score ([2]; library: Spectrum): inactive: 0

Cc1ccc(N(CC2=NCCN2)c2cccc(O)c2)cc1
neuronal differentiation score ([1]; library: Spectrum): inactive: 0 | dopaminergic neuron differentiation score ([2]; library: Spectrum): inactive: 0

CC1=CC(=O)CC(C)(C)[C@@]1(O)/C=C/C(C)=C\C(=O)O (racemic) [(+/-)-2-cis-4-trans-Abscisic acid]
neuronal differentiation score ([1]; library: Phytochemical): inactive: 0 | dopaminergic neuron differentiation score ([2]; library: Phytochemical): inactive: 0

O=c1[nH]c(=O)n([C@H]2C[C@H](O)[C@@H](CO)O2)cc1C(F)(F)F
neuronal differentiation score ([1]; library: Spectrum): inactive: 0 | dopaminergic neuron differentiation score ([2]; library: Spectrum): inactive: 0

C#CCn1c(=O)c2c(ncn2C)n(C)c1=O [3,7-Dimethyl-1-propargylxanthine]
neuronal differentiation score ([1]; library: LOPAC): inactive: 0 | dopaminergic neuron differentiation score ([2]; library: LOPAC): inactive: 0

Clc1ccc2c(c1)CCc1cccnc1C2=C1CCNCC1 [Desloratadine]
neuronal differentiation score ([1]; library: Prestwick): inactive: 0 | dopaminergic neuron differentiation score ([2]; library: Prestwick): inactive: 0

C/C=C1\[C@H]2C=C(C)C[C@]1(N)c1ccc(=O)[nH]c1C2
neuronal differentiation score ([1]; library: Spectrum): inactive: 0 | dopaminergic neuron differentiation score ([2]; library: Spectrum): inactive: 0

c1ccc(COCCCc2c[nH]cn2)cc1 [Proxyfan Oxalate]
neuronal differentiation score ([1]; library: Tocriscreen): inactive: 0 | dopaminergic neuron differentiation score ([2]; library: Tocriscreen): inactive: 0

NC(=O)C1=CN(C2OC(COP(=O)(O)OP(=O)(O)OC[C@H]3O[C@@H](n4cnc5c(N)ncnc54)C(OP(=O)(O)O)[C@H]3O)C(O)C2O)C=CC1 (some centres not stated) [NADPH tetrasodium]
neuronal differentiation score ([1]; library: LOPAC): inactive: 0 | dopaminergic neuron differentiation score ([2]; library: LOPAC): inactive: 0

N[C@H](Cc1ccccc1)C(=O)O
neuronal differentiation score ([1]; library: Spectrum): inactive: 0 | dopaminergic neuron differentiation score ([2]; library: Spectrum): inactive: 0

O=[N+]([O-])c1cc(Cl)ccc1S(=O)(=O)N1CCN(Cc2ccccc2)CC1
neuronal differentiation score ([1]; library: Tocriscreen): inactive: 0 | dopaminergic neuron differentiation score ([2]; library: Tocriscreen): inactive: 1

C[C@]12CCC(=O)C=C1[C@@H]1C[C@@H]1[C@H]1[C@@H]3[C@@H]4C[C@@H]4[C@@]4(CCC(=O)O4)[C@@]3(C)CC[C@@H]12
neuronal differentiation score ([1]; library: Spectrum): inactive: 1 | dopaminergic neuron differentiation score ([2]; library: Spectrum): inactive: 0

CCC(=O)Oc1ccc2c(c1)CC[C@@H]1[C@@H]2CC[C@]2(C)[C@@H](OC(=O)CC)CC[C@@H]12
neuronal differentiation score ([1]; library: Spectrum): inactive: 0 | dopaminergic neuron differentiation score ([2]; library: Spectrum): inactive: 0

O=C(O)c1ccc2cc(-c3ccc(O)c(C45CC6CC(CC(C6)C4)C5)c3)ccc2c1
neuronal differentiation score ([1]; library: Tocriscreen): inactive: 0 | dopaminergic neuron differentiation score ([2]; library: Tocriscreen): inactive: 0

CO[C@H]1/C=C/O[C@@]2(C)Oc3c(C)c(O)c4c(O)c(c5c(nc6cc(C)ccn65)c4c3C2=O)NC(=O)/C(C)=C\C=C\[C@H](C)[C@H](O)[C@@H](C)[C@@H](O)[C@@H](C)[C@H](OC(C)=O)[C@@H]1C
neuronal differentiation score ([1]; library: Spectrum): inactive: 0 | dopaminergic neuron differentiation score ([2]; library: Spectrum): inactive: 0

CN(C)CCN(Cc1ccccc1)c1ccccn1 [Tripelennamine hydrochloride]
neuronal differentiation score ([1]; library: Prestwick): inactive: 0 | dopaminergic neuron differentiation score ([2]; library: Prestwick): inactive: 0

CN1CCC[C@@H]1c1cccnc1.Cc1ccc(C(=O)O[C@H](C(=O)O)[C@@H](OC(=O)c2ccc(C)cc2)C(=O)O)cc1 [(+)-Nicotine (+)-di-p-toluoyl tartrate]
neuronal differentiation score ([1]; library: LOPAC): inactive: 0 | dopaminergic neuron differentiation score ([2]; library: LOPAC): inactive: 0

CCN(CC)C(=O)c1cccc(C)c1
neuronal differentiation score ([1]; library: Spectrum): inactive: 0 | dopaminergic neuron differentiation score ([2]; library: Spectrum): inactive: 0

Cc1nc2sccn2c(=O)c1CCN1CCC(=C(c2ccccc2)c2ccc(F)cc2)CC1 [Diacylglycerol kinase inhibitor I]
neuronal differentiation score ([1]; library: LOPAC): inactive: 0 | dopaminergic neuron differentiation score ([2]; library: LOPAC): inactive: 0

CC1(C)CCC=[N+]1[O-] [5,5-Dimethyl-1-pyrroline-N-oxide]
neuronal differentiation score ([1]; library: LOPAC): active: 3 | dopaminergic neuron differentiation score ([2]; library: LOPAC): inactive: 0

CCC(C)n1ncn(-c2ccc(N3CCN(c4ccc(OCC5COC(Cn6cncn6)(c6ccc(Cl)cc6Cl)O5)cc4)CC3)cc2)c1=O (configuration not stated)
neuronal differentiation score ([1]; library: Spectrum): inactive: 1 | dopaminergic neuron differentiation score ([2]; library: Spectrum): inactive: 1

CCCCc1cc2ccccc2c(OCCN(C)C)n1 [Dimethisoquin hydrochloride]
neuronal differentiation score ([1]; library: Prestwick): inactive: 0 | dopaminergic neuron differentiation score ([2]; library: Prestwick): inactive: 0

C#C[C@]1(O)CC[C@H]2[C@@H]3CCc4cc(OC)ccc4[C@H]3CC[C@@]21C [Ethynylestradiol 3-methyl ether]
neuronal differentiation score ([1]; library: Prestwick): inactive: 0 | dopaminergic neuron differentiation score ([2]; library: Prestwick): inactive: 0
